According to patent publication US20060058231A1:
No constants are given. Whether binding was seen depends on the method and setting. Some binding calls cover weakened binding; strength is not graded here. For some assays here: Tags and fused reporters may be left off the sequences shown.

The chains behind the UniProt entries cited, without tags or fusion partners. Where a name states a change or a piece, a line headed by the entry shows the natural chain unless it says otherwise. Residues count along the entry.
UniProt P27037, residues 20-134: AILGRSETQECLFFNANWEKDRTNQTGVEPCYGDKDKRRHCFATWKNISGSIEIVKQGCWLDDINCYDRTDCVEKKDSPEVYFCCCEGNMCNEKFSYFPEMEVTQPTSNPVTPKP
UniProt P36894, residues 24-152: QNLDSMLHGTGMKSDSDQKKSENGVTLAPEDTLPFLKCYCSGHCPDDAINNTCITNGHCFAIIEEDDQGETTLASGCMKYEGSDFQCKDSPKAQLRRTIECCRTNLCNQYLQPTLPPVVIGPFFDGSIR
UniProt P18075: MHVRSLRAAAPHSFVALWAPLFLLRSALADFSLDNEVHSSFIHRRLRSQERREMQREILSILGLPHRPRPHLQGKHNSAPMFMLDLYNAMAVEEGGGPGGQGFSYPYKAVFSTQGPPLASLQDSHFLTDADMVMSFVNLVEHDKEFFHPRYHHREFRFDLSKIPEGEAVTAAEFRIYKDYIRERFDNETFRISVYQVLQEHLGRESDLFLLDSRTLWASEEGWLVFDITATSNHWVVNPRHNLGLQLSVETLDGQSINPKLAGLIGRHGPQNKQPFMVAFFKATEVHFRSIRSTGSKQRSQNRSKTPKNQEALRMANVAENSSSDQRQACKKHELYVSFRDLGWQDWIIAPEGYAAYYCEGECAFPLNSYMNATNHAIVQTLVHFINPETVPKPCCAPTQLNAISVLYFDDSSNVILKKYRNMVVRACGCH

What was measured:
[1] = target: T1, BMPRIb receptor/Fc fusion (R&D Systems) (UniProt O00238); assay: plate direct binding assay, 12-point titration of BMPRIb-Fc chimera on captured BMP-7; absorbance 450 nm; concentration axis carries no unit
T1 sequence (looked up): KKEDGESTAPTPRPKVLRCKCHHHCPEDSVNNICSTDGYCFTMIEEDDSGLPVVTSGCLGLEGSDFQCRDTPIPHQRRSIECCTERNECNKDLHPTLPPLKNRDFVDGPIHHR

[2] = target: T2, BMPRII receptor/Fc fusion (R&D Systems) (UniProt Q13873); assay: plate direct binding assay, BMP-7 from conditioned medium captured by anti-BMP-7 antibody, receptor-Fc titrated in 12 points; EC50 drawn as a bar, no number given
T2 sequence (looked up): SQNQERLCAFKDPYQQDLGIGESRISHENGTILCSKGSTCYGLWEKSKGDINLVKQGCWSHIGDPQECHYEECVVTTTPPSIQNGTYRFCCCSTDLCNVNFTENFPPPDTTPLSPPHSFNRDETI

[3] = target: ActRIIa receptor/Fc fusion (R&D Systems) (UniProt P27037); assay: as above
[4] = target: T1, BMPRIb receptor/Fc fusion (R&D Systems); assay: as above
[5] = target: BMPRIa receptor/Fc fusion (R&D Systems) (UniProt P36894); assay: as above
[6] = target: T2, BMPRII receptor/Fc fusion (R&D Systems); assay: plate direct binding assay, 12-point titration of receptor-Fc ([BMPRII]) on captured BMP-7 from conditioned medium; axes carry no unit
[7] = target: T2, BMPRII receptor/Fc fusion (R&D Systems); assay: plate direct binding assay (ELISA-like): BMP-7 captured by anti-BMP-7 antibody, receptor-Fc titrated (x axis Receptor, ug/mL), anti-human IgG-HRP, absorbance 450 nm
[8] = target: ActRIIa receptor/Fc fusion (R&D Systems) (UniProt P27037); assay: as above
[9] = target: T1, BMPRIb receptor/Fc fusion (R&D Systems); assay: as above
[10] = target: BMPRIa receptor/Fc fusion (R&D Systems) (UniProt P36894); assay: as above
[11] = target: BMPRIa receptor/Fc fusion (R&D Systems) (UniProt P36894); assay: plate direct binding assay, 12-point titration of BMPRIa-Fc chimera on captured BMP-7; absorbance 450 nm; concentration axis carries no unit
[12] = target: ActRIIa receptor/Fc fusion (R&D Systems) (UniProt P27037); assay: plate direct binding assay, 12-point titration of ActRIIa-Fc chimera on captured BMP-7; absorbance 450 nm; concentration axis carries no unit
[13] = target: T2, BMPRII receptor/Fc fusion (R&D Systems); assay: plate direct binding assay, receptor-Fc detection, 12-point dilution
[14] = target: ActRIIa receptor/Fc fusion (R&D Systems) (UniProt P27037); assay: as above
[15] = target: T1, BMPRIb receptor/Fc fusion (R&D Systems); assay: as above
[16] = target: BMPRIa receptor/Fc fusion (R&D Systems) (UniProt P36894); assay: as above
[17] = target: BMPRIa receptor/Fc fusion (R&D Systems) (UniProt P36894); assay: plate direct binding assay, 12-point titration of receptor-Fc ([ALK-3]) on captured BMP-7 from conditioned medium; axes carry no unit
[18] = target: T2, BMPRII receptor/Fc fusion (R&D Systems); assay: plate direct binding assay, 12-point titration of BMPRII-Fc chimera on captured BMP-7; absorbance 450 nm; concentration axis carries no unit
[19] = target: ActRIIa receptor/Fc fusion (R&D Systems) (UniProt P27037); assay: plate direct binding assay, 12-point titration of receptor-Fc ([ActRIIa]) on captured BMP-7 from conditioned medium; axes carry no unit
[20] = target: T1, BMPRIb receptor/Fc fusion (R&D Systems); assay: plate direct binding assay, 12-point titration of receptor-Fc ([ALK-6]) on captured BMP-7 from conditioned medium; axes carry no unit

- binding [1]: binds
- binding [2]: binds
- binding [3]: binds
- binding [4]: binds
- binding [5]: binds
- binding [6]: binds
- binding [7]: binds
- binding [8]: binds
- binding [9]: binds
- binding [10]: binds
- binding [11]: binds
- binding [12]: binds
- binding [13]: binds
- binding [14]: binds
- binding [15]: binds
- binding [16]: binds
- binding [17]: binds
- binding [18]: binds
- binding [19]: binds
- binding [20]: binds
Substance: wild type human BMP-7 (Image clone) (from UniProt P18075 293-431 at identity 0.99)) (ligand)
